Measurements as given in patent publication US11110158B2, “Prostate-associated antigens and vaccine-based immunotherapy regimens” (Pfizer Inc., priority 2012, dated 2021).
“Also recorded” adds a separate entry of the source. At least one compound was matched to its structure with a doubt left.

Key:
[1] = tested on: subcutaneous TUBO tumors; assay: Subcutaneous TUBO tumor growth and survival in BALB/neuT mice, sunitinib malate with cancer vaccine; type: in vivo, mouse; settings: for subcutaneous tumor growth rate: FIG. 32
[2] = tested on: subcutaneous TUBO tumors; assay: Survival of TUBO tumor bearing BALB/neuT mice, long term low dose sunitinib with cancer vaccine; type: in vivo, mouse; settings: FIG. 39, cancer vaccine versus control vaccine

In the case of CCN(CC)CCNC(=O)c1c(C)[nH]c(/C=C2\C(=O)Nc3ccc(F)cc32)c1C [Sunitinib, butanedioic acid, hydroxy-, (2S)-, compound with N-[2-(diethylamino)ethyl]-5-[(Z)-(5-fluoro-1,2-dihydro-2-oxo-3H-indol-3-ylidine)methyl]-2,4-dimethyl-1H-pyrrole-3-carboxamide (1:1)], the “subcutaneous tumor growth rate” value ([1]; 20 mg/kg once a day orally with control vaccine, listed as sunitinib malate, 20 mg/kg) is reported as “significantly decreased the tumor growth rate; also recorded: suboptimal efficacy”, the “subcutaneous tumor growth rate” value ([1]; 40 mg/kg once a day orally with control vaccine) is reported as “significantly decreased the tumor growth rate” and the “subcutaneous tumor growth rate” value ([1]; suboptimal dose 20 mg/kg co-administered with the cancer vaccine (rHER2), versus same dose with control vaccine) is reported as “much slower growth rate”. The individual tumor growth ([1]; FIG. 33B, 20 mg/kg daily orally for 34 days with control vaccine) was “significantly impaired until Sutent therapy was discontinued”, the Kaplan-Meier survival ([1]; FIG. 34, Sutent at 20 mg/kg and cancer vaccine versus the other groups, P<0.01 Log-rank) was “significantly prolonged survival” and the survival ([2]; Sutent 10 mg/kg BID for 104 days, P=0.05 Log rank) was “significant improvement of the survival”. The survival ([2]; Sutent 20 mg/kg SID for 31 days) was “improved the survival”.
